Record: PubChem BioAssay AID1259308 (NCATS, 2017)
Assay: 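Candidate targets for better recombinant protein yield in mammalian cells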 (primary screen). Cell system: human HEK293 embryonic kidney cells stably expressing firefly luciferase (HEK-CMV-Luc2-Hygro). Reagent: single siRNA against human genes, 0.8 pmol siRNA per well. Duration: 72 h. Read-out: 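Reporter luminescence and viable-cell signal on separate replicate plates, given as percent of non-targeting control and median/MAD z-scores, plus per-cell luciferase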. Reading the numbers: total luciferase, z-score: higher = more reporter protein produced. Hit rule: 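An siRNA counts as active if its total luciferase robust z-score exceeds 3; genes with two or more such siRNAs out of three were retested with fresh siRNAs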. Meaning of the calls: active = raised luciferase; inactive = no rise.
In all, the deposit lists about 59,000 reagents; below is a part drawn at random. Over the whole deposit, about 1,510 (2.6%) are marked active. 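Calls use total luciferase alone and ignore viability, so some active siRNAs may act by altering cell number.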 The numbers tell different reagents against one gene apart. Not all columns of the deposit are shown. No sequences are given here.

{"Target gene": "CAV3 (caveolin 3)", "reagent no.": 1, "total luciferase, z-score": -0.973, "Outcome": "inactive"}
{"Target gene": "CAV3 (caveolin 3)", "reagent no.": 2, "total luciferase, z-score": -0.518, "Outcome": "inactive"}
{"Target gene": "CAV3 (caveolin 3)", "reagent no.": 3, "total luciferase, z-score": -0.734, "Outcome": "inactive"}
{"Target gene": "PITX1 (paired like homeodomain 1)", "reagent no.": 1, "total luciferase, z-score": 1.47, "Outcome": "inactive"}
{"Target gene": "PITX1 (paired like homeodomain 1)", "reagent no.": 2, "total luciferase, z-score": 0.968, "Outcome": "inactive"}
{"Target gene": "PITX1 (paired like homeodomain 1)", "reagent no.": 3, "total luciferase, z-score": -1.49, "Outcome": "inactive"}
{"Target gene": "CFB (complement factor B)", "reagent no.": 1, "total luciferase, z-score": 0.404, "Outcome": "inactive"}
{"Target gene": "CFB (complement factor B)", "reagent no.": 2, "total luciferase, z-score": 1.46, "Outcome": "inactive"}
{"Target gene": "CFB (complement factor B)", "reagent no.": 3, "total luciferase, z-score": -0.727, "Outcome": "inactive"}
{"Target gene": "MRPS11 (mitochondrial ribosomal protein S11)", "reagent no.": 1, "total luciferase, z-score": -0.0229, "Outcome": "inactive"}
{"Target gene": "MRPS11 (mitochondrial ribosomal protein S11)", "reagent no.": 2, "total luciferase, z-score": 0.208, "Outcome": "inactive"}
{"Target gene": "MRPS11 (mitochondrial ribosomal protein S11)", "reagent no.": 3, "total luciferase, z-score": 0.342, "Outcome": "inactive"}
{"Target gene": "RPS26P10 (ribosomal protein S26 pseudogene 10)", "reagent no.": 1, "total luciferase, z-score": -2.78, "Outcome": "inactive"}
{"Target gene": "RPS26P10 (ribosomal protein S26 pseudogene 10)", "reagent no.": 2, "total luciferase, z-score": -3.55, "Outcome": "inactive"}
{"Target gene": "RPS26P10 (ribosomal protein S26 pseudogene 10)", "reagent no.": 3, "total luciferase, z-score": 0.638, "Outcome": "inactive"}
{"Target gene": "IL17D (interleukin 17D)", "reagent no.": 1, "total luciferase, z-score": -1.47, "Outcome": "inactive"}
{"Target gene": "IL17D (interleukin 17D)", "reagent no.": 2, "total luciferase, z-score": -0.438, "Outcome": "inactive"}
{"Target gene": "IL17D (interleukin 17D)", "reagent no.": 3, "total luciferase, z-score": -0.248, "Outcome": "inactive"}
{"Target gene": "AGR3", "reagent no.": 1, "total luciferase, z-score": -0.117, "Outcome": "inactive"}
{"Target gene": "AGR3", "reagent no.": 2, "total luciferase, z-score": -0.337, "Outcome": "inactive"}
{"Target gene": "AGR3", "reagent no.": 3, "total luciferase, z-score": 1, "Outcome": "inactive"}

Laid out differently: results already given.
Target gene,reagent no.,"total luciferase, z-score",Outcome
CAV3 (caveolin 3),1,-0.973,inactive
CAV3 (caveolin 3),2,-0.518,inactive
